Reference: US20130149236A1 (MacroGenics, published 2013)

How the values were obtained:
[1] = target: cynomolgus monkey B7-H3 (cynomolgus monkey); assay: Cynomolgus B7-H3 Binding grade
[2] = target: cynomolgus monkey B7-H3 (cynomolgus monkey); assay: Cyno Cross-Reactivity
[3] = target: cynomolgus monkey B7-H3 (cynomolgus monkey); assay: summary of activities
[4] = target: cynomolgus monkey B7-H3 (cynomolgus monkey); assay: summary of Example 9
[5] = target: cynomolgus monkey B7-H3 (cynomolgus monkey); assay: Cyno B7-H3 Binding grade
[6] = target: cynomolgus monkey B7-H3 (cynomolgus monkey); assay: IHC on cynomolgus tissues
[7] = target: cynomolgus monkey B7-H3 (cynomolgus monkey); assay: summary of panel

Measured: binding

B1: BRCA69D (antibody, IgG1, V domains shown)
VH: QVQLQQSGAELARPGASVKLSCKASGYTFTSYWMQWVKQRPGQGLEWIGTIYPGDGDTRYTQKFKGKATLTADKSSSTAYMQLSSLASEDSAVYYCARRGIPRLWYFDVWGAGTTVTVSS
VL: DIQMTQTTSSLSASLGDRVTISCRASQDISNYLNWYQQKPDGTVKLLIYYTSRLHSGVPSRFSGSGSGTDYSLTIDNLEQEDIATYFCQQGNTLPPTFGGGTKLEIK
binds: all assays above

B2: PRCA157 (antibody, IgG1, V domains shown)
VH: EVQQVESGGDLVKPGGSLKLSCAASGFTFSSYGMSWVRQTPDKRLEWVATINSGGSNTYYPDSLKGRFTISRDNAKNTLYLQMRSLKSEDTAMYYCARHDGGAMDYWGQGTSVTVSS
VL: DIQMTQSPASLSVSVGETVTITCRASESIYSYLAWYQQKQGKSPQLLVYNTKTLPEGVPSRFSGSGSGTQFSLKINSLQPEDFGRYYCQHHYGTPPWTFGGGTNLEIK
notes: murine mAb, IgG1/k
binds: all assays above

No constants are given. Whether binding was seen depends on the method and setting. Binding can be weak; no strength is given.
